According to the supplement of paper PMC3334620:
The full ranking holds about 33,000 sequences; the median of “E-score (-0.5 to 0.5)” is about -0.0059, and the highest 2% start at about 0.26. The list shows a part of the results.

Target: T1, Cin5 (UniProt P40917)
T1 sequence: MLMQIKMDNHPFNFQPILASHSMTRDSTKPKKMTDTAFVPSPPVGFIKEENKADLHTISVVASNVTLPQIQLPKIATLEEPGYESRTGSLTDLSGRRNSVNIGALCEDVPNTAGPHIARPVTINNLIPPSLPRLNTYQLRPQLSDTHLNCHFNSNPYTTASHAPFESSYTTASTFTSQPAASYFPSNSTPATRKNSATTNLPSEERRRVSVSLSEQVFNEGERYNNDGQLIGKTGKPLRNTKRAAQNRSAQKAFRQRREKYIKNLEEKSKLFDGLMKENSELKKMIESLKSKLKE
Experiment: PBM E-score (8-mer binding enrichment) (E-score (-0.5 to 0.5)); higher = stronger / more preferred TF binding
Details: protein concentration: 100 nM; construct: GST-full length
Summary of the method: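 For each ungapped eight-base word taken together with its reverse complement, the Universal PBM Analysis Suite assigned an E-score. Binding data came from GST-tagged yeast transcription factors, applied at about 100-200 nM, on universal all-10-mer Agilent arrays made double-stranded by primer extension. Fluorescent anti-GST marked bound protein, and scans were normalised with masliner.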

Sequence	PBM E-score
AAACCCCT	-0.253
AGCACGCA	-0.127
ACTACGCT	-0.0378
TGCATCCA	0.0333
TCAGGGCA	-0.0392
CTACGCCA	-0.226
CCGAAGTC	-0.0417
GCACACCC	-0.187
GATTGTAA	0.123
AAACGGAG	-0.0245
CAACTTAG	0.247
CTGTTATA	0.0812
ACGACGAG	-0.0929
AAGCTATT	0.0828
CCGGAGCG	-0.235
AACAAACA	0.183
GCCAACGA	-0.0711
AAATTTAG	0.102
CAACGGGC	-0.0196
CCTGCGTC	-0.284
GATGTTCA	-0.202
ACAAGTTG	0.0874
GACGGTCC	-0.201
ACGGTTCA	-0.261
GAGTTACC	-0.092

Sequence	PBM E-score
ACGGGCTC	-0.391
GAACCGTC	-0.0783
AGGCACAA	-0.0859
AGAGATCT	-0.171
GCGCGACA	0.0258
GCACCAAC	-0.092
CAGAGCTC	-0.295
CCCCACTA	-0.0856
CAGCATAC	-0.0173
GGGAATGA	0.277
GAGGTGCC	-0.136
ATCTATTG	0.0431
TACGACTA	0.045
GCCACTTA	0.0784
AGACGCGG	-0.0536
CCCGCAAC	0.0475
TAGATGAA	0.137
ACGCTAGT	-0.054
CGGTGGCC	-0.0338
CGGCAGGA	-0.255
GAGGCTAA	-0.00141
AAAAACTG	-0.114
CAACCTCA	-0.0493
CGGAAGAA	0.0104
GCCCTTGA	-0.253

Sequence	PBM E-score
CTACTGCC	-0.117
TACGAACA	-0.112
AAGGTGAG	-0.00458
AAGCCTCT	-0.187
AAGCTGCA	0.0791
CAAATTGA	0.109
CACGGTTC	-0.2
CCGAATTA	0.0794
AAGCACCC	-0.0437
GCGCAGTA	0.0953
CATAATCC	0.265
AGAACAGG	-0.13
TTGTTAAA	-0.127
GAATGGGA	0.0182
ATATCTTC	0.225
CTTGCCCC	-0.185
GATCGTCC	-0.15
ACTACGTC	0.00455
ACATCTGC	-0.0701
GGTGTCGA	0.022
CTGAGGAC	-0.151
ATCGAACG	0.00807
AAATATGA	0.245
ATGACGCC	-0.0636
ACCTACCT	-0.137

Sequence	PBM E-score
ACCAGATC	-0.0659
ATAATCAT	0.377
CATGACCA	0.0168
CCCGTGCG	-0.123
GGCTAGCA	-0.0387
AACTTAAT	0.211
ACATAGTA	0.15
AACATATG	0.0896
AGGGTAAA	0.0833
CCAATCAA	0.0665
CTATGCGA	0.0728
CCTTGAGA	-0.0182
CCAGTATC	-0.0585
AAGGAAAA	0.222
AAGGCGGC	-0.32
AGGGCAAT	0.0012
ACAACGCG	0.223
GAGTGTAA	-0.107
GAGCTCGC	0.0383
AGGGAACC	-0.211
CGATCCTA	-0.0425
AGCCAGAT	-0.0293
GGAACTAA	0.163
AATTACGC	0.073
CTGACGGC	-0.165

Sequence	PBM E-score
AGGCAAAA	0.167
ATCACAGA	-0.0171
GTCGACAA	-0.0882
TATACAAA	0.169
CCAATGAG	-0.0379
AGCTGTCG	-0.274
ACAAGTTC	0.0429
AACGGACC	-0.0992
ACCGAGAG	0.0123
GGGCGTGA	-0.113
CCGAAGAG	-0.116
GCCGCTTA	0.156
TAATCCAA	0.283
ACTCGAAG	-0.252
CCCTCTCA	-0.231
CCCCAAAC	-0.0852
CCCGAGTA	0.15
ACCCCCAT	-0.356
ATATGTCC	0.0709
CCGCACTA	0.0168
CTTCCTAA	-0.0712
CGTGGGAG	-0.279
CCGAACCC	-0.231
CGCTCGCA	0.0447
AAAACAGA	0.197

Sequence	PBM E-score
ACTCTGTC	0.0135
ATACTTTC	0.122
GCCACGAA	-0.23
CTTGATAA	0.177
GTCAGCAC	0.117
TACTATCA	0.179
ACCCGCGT	-0.0918
GGGGCAGA	-0.0398
CATATACC	-0.0774
GTTTCGCA	-0.113
ATCAGAGA	0.0158
CATTCTAA	-0.0081
AATCACTC	0.0605
ACGCACCA	-0.0787
ACTAAGCA	0.241
CCTGCTGC	-0.0577
GAAGTGTC	-0.00163
ACTGAGTG	-0.0469
AGGTTTCA	0.107
ACGGGAAC	0.031
AGAAGGAA	-0.157
AGATAGCA	0.18
AGCGTTAA	0.0126
ACGTGTTA	0.215
CTAGGCGA	-0.0512

Sequence	PBM E-score
GACTTTAC	0.0588
ATTGTTCA	0.101
CTACATGA	-0.127
CTGTTTGC	0.075
AGGCCACG	-0.155
TAGCGCGA	0.13
CGATTGAA	-0.0302
CGATAGTA	0.0573
AGCCGTAC	0.0736
CGAGCATC	0.0462
AGAACGAA	0.115
AGCCGACT	-0.275
ACAAACAG	0.127
TCTGGGCA	-0.124
TGAAGACA	-0.137
GATAAGAA	0.141
CCCGGCCA	-0.288
CGCGCCGA	-0.124
GCTGCGCC	-0.211
CAACTAAG	0.182
AGCCCTTC	-0.333
CAGCTGCA	-0.143
CAAGTCTC	-0.274
ACGTCCAC	-0.124
GAACCAAA	-0.083

96 consecutive entries already listed:
Sequence	PBM E-score
GGCTAGCA	-0.0387
AACTTAAT	0.211
ACATAGTA	0.15
AACATATG	0.0896
AGGGTAAA	0.0833
CCAATCAA	0.0665
CTATGCGA	0.0728
CCTTGAGA	-0.0182
CCAGTATC	-0.0585
AAGGAAAA	0.222
AAGGCGGC	-0.32
AGGGCAAT	0.0012
ACAACGCG	0.223
GAGTGTAA	-0.107
GAGCTCGC	0.0383
AGGGAACC	-0.211
CGATCCTA	-0.0425
AGCCAGAT	-0.0293
GGAACTAA	0.163
AATTACGC	0.073
CTGACGGC	-0.165
AGGCAAAA	0.167
ATCACAGA	-0.0171
GTCGACAA	-0.0882
TATACAAA	0.169
CCAATGAG	-0.0379
AGCTGTCG	-0.274
ACAAGTTC	0.0429
AACGGACC	-0.0992
ACCGAGAG	0.0123
GGGCGTGA	-0.113
CCGAAGAG	-0.116
GCCGCTTA	0.156
TAATCCAA	0.283
ACTCGAAG	-0.252
CCCTCTCA	-0.231
CCCCAAAC	-0.0852
CCCGAGTA	0.15
ACCCCCAT	-0.356
ATATGTCC	0.0709
CCGCACTA	0.0168
CTTCCTAA	-0.0712
CGTGGGAG	-0.279
CCGAACCC	-0.231
CGCTCGCA	0.0447
AAAACAGA	0.197
ACTCTGTC	0.0135
ATACTTTC	0.122
GCCACGAA	-0.23
CTTGATAA	0.177
GTCAGCAC	0.117
TACTATCA	0.179
ACCCGCGT	-0.0918
GGGGCAGA	-0.0398
CATATACC	-0.0774
GTTTCGCA	-0.113
ATCAGAGA	0.0158
CATTCTAA	-0.0081
AATCACTC	0.0605
ACGCACCA	-0.0787
ACTAAGCA	0.241
CCTGCTGC	-0.0577
GAAGTGTC	-0.00163
ACTGAGTG	-0.0469
AGGTTTCA	0.107
ACGGGAAC	0.031
AGAAGGAA	-0.157
AGATAGCA	0.18
AGCGTTAA	0.0126
ACGTGTTA	0.215
CTAGGCGA	-0.0512
GACTTTAC	0.0588
ATTGTTCA	0.101
CTACATGA	-0.127
CTGTTTGC	0.075
AGGCCACG	-0.155
TAGCGCGA	0.13
CGATTGAA	-0.0302
CGATAGTA	0.0573
AGCCGTAC	0.0736
CGAGCATC	0.0462
AGAACGAA	0.115
AGCCGACT	-0.275
ACAAACAG	0.127
TCTGGGCA	-0.124
TGAAGACA	-0.137
GATAAGAA	0.141
CCCGGCCA	-0.288
CGCGCCGA	-0.124
GCTGCGCC	-0.211
CAACTAAG	0.182
AGCCCTTC	-0.333
CAGCTGCA	-0.143
CAAGTCTC	-0.274
ACGTCCAC	-0.124
GAACCAAA	-0.083

More records.

Sequence	PBM E-score
AGCATAAA	0.148
ACCGAAAT	0.116
AGCCACCC	-0.251
AGCAGTCG	-0.0658
AAAGGTAT	0.101
ACCTAAGC	0.327
CGGATACC	0.0163
AGATCAGA	-0.036
CGTTCTCC	-0.0269
AGTAGGAC	0.0243
TGCCACCA	-0.243
ACTGATAG	-0.00682
ACGTTAAG	-0.0111
AGAAGCAC	-0.0648
ATCTAACG	-0.032
GGTGCTCA	-0.186
AATCTAGA	-0.0566
CGGACCGC	-0.112
AAGACGTC	-0.132
CCTATGAG	-0.0979
AGAGCGAC	-0.129
AGATGACG	0.0912
AAAAACGC	-0.0218
CATCTCGC	0.0181
AGCTAGTC	0.0266

Sequence	PBM E-score
ACCTGCAG	-0.129
AACTGTCA	0.0613
AGTTGCGA	0.196
CCCTCGAG	-0.113
ACCCTTGA	-0.137
ACAATGCG	0.187
ACAGTGTA	-0.00594
GAGTTGCC	0.0728
TAAAGTGA	0.218
ACGGTAAA	0.0258
ACTCCAAG	0.0126
TCACGTCA	0.209
TTTGCAAA	0.083
GTCTAGCA	-0.0616
AGTGGGGC	-0.217
GAAGTGCA	0.0711
AAGATAAT	0.147
GCGGTCAA	-0.0866
CCGCGGTC	-0.104
CATATTTA	0.157
GCCCTAGC	-0.121
CGTGACTA	-0.018
AATACCGA	-0.106
ACTCTGAA	0.0787
CTAATCGA	0.202

Sequence	PBM E-score
AGATAAGA	0.215
CTTACAGA	-0.0723
AGCGCAGC	-0.149
CAATGCAG	-0.056
ATAGAGAA	0.096
CCCGATGA	0.169
TATGGCGA	-0.093
CAGTCAAA	-0.111
ACAGGCAC	-0.167
CGCATAGA	0.177
TCTTAACA	0.0509
AAACGCTT	0.0152
CACTTGAA	0.125
AGGAGCAT	-0.108
AGTTAACC	0.0936
AATACATT	0.151
CGAGACGC	0.0025
ATCCGCCG	0.105
AGTTGTTA	0.122
AAGCGTGT	-0.101
AGCCAGTG	-0.171
TCGGGTCA	0.102
CGCTATAA	0.0317
CCAAATGC	0.0481
AGTACTAT	0.0786

Sequence	PBM E-score
ACTATGCC	0.0439
ATTACTCA	0.237
CCCTGCGG	-0.205
AACACTCT	0.0668
ACAATGTC	0.102
AAAAGTGG	0.147
AGAAGCCC	-0.208
GGGCCCCA	-0.285
CATAGGTC	-0.0601
CAAGTACG	-0.0468
ATCCTGCA	0.147
AGTCCTCA	-0.0783
CGCAGACG	-0.00926
GACCGATC	-0.213
ATTGAATG	0.233
GTGTTGAA	0.0739
AAGGTCCA	-0.0721
CCGTATCG	-0.152
CCGCGCAG	-0.0676
GGGCCACA	-0.18
CCGTCGTC	-0.097
ATTCGCGC	0.184
CAGACGAG	-0.146
CGCTTAAC	0.0286
AATCTACA	0.172

Sequence	PBM E-score
AGTGACAC	0.00454
CCCTACTC	0.0255
AGCTTGAC	-0.0987
CCCCCTTA	-0.342
GAATCACA	0.0575
AAAGCTCT	-0.224
AACCTATC	0.0619
CTTGGCTC	-0.238
AGCGGAGG	-0.216
GGCGTTAC	-0.265
ACCTTAGG	-0.104
ACGTAGGC	-0.0352
AGATACCG	-0.0524
CTTACATA	0.358
CAATCGTC	0.124
CCGTCACA	-0.236
TACTTTCA	0.119
ACGAAGGG	-0.237
ATACACAC	0.00594
GAACAAAC	0.226
AGTCGTGG	-0.00757
GGAATCGA	-0.0531
AACATCAC	0.011
GTATCACA	0.154
TTACAGAA	-0.0682

Sequence	PBM E-score
CACGGTTA	0.0993
CCATAGAA	-0.023
CAAATTCC	0.132
TGCGTTAA	0.053
CAAAGGGA	-0.18
ACGGCGGA	-0.0989
AGCACGTC	-0.00862
CCGGGCCC	-0.0989
AGTACCAA	0.167
CTTGACTC	-0.162
ACAGACGG	-0.123
AAATGGCC	-0.16
GCTGTGGA	-0.0281
ATGAGGCC	-0.156
ACTTACGG	0.104
AGCCGATA	-0.0478
GGTCTGAA	-0.0516
GTAGAAAA	-0.0209
TGATCTAA	0.0735
AGGCTTCC	-0.0374
CCCGTGAA	-0.0336
GAATCGCC	-0.111
TTGGTAAA	-0.168
AGGAGGCA	-0.119
CGGATGTA	-0.0153

Sequence	PBM E-score
TGCTGACA	0.245
CGCAAAAA	0.0785
CAAGAATC	0.133
CAGGACAC	-0.137
TATAATCA	0.342
ATCAACGA	0.0637
AACAACCG	0.0754
AAATATAT	0.295
AACACCCA	-0.0466
ACATTGCG	0.00233
ATTCGTGA	0.13
GCGCTGTA	0.0273
GCACGAAA	0.11
GCAGCCGA	-0.00044
GAGTGCCA	-0.235
ATAGAGAT	0.133
ATCATATC	0.209
GACAATGA	-0.0974
GCCAAGTA	-0.169
